Test results: the supplement of paper PMC6078165
Values are relative to the signal before dosing, not to a vehicle control; the signal also falls without drug.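 Fibroblast labels name human fibroblasts: mostly primary ones from tissues such as uterus (C12385, HUF), lung (H6013), bone (Hs27A), adrenal (HADF) and skin (WS1), plus mammary HMF and breast cancer-associated Hs343T. The cancer cells are basal-like or mesenchymal-like triple-negative breast cancer lines. The paper calls a changed response a hit when it shifts by more than 3x the replicate standard deviation. The tissue of the other fibroblasts is not given here.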

System: MDAMB231
Test: relative JC-1 red fluorescence (viability) vs pre-drug, coculture with fibroblast (fraction); higher = more viable cancer cells
Method: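 JC-1 labelled TNBC cells cocultured 1:1 (1,500 cells each) with CellTrace Violet stained primary or stromal fibroblasts in 384-well plates in FluoroBrite medium, treated with one of 42 anticancer drugs at 0.1, 1, 10 or 100 uM. JC-1 red fluorescence (mitochondrial integrity in cancer cells only) was read by plate reader every 8 h for 72 h. Values are normalised to each well's pre-drug value. The stock of one drug was tenfold lower, so its dose labels may be too high.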

CC(=O)c1c(C)c2cnc(Nc3ccc(N4CCNCC4)cn3)nc2n(C2CCCC2)c1=O [Palbociclib]
relative JC-1 red fluorescence
Conditions | 8 h | 16 h | 24 h | 32 h | 40 h | 48 h | 56 h | 64 h | 72 h
10 µM, coculture fibroblast: C12385 | 0.806 | 0.852 | 0.732 | 0.84 | 0.815 | 0.807 | 0.776 | 0.78 | 0.758
10 µM, coculture fibroblast: H6013 | 0.98 | 0.975 | 0.927 | 0.861 | 0.884 | 0.942 | 0.823 | 0.858 | 0.832
10 µM, coculture fibroblast: H6019 | 0.841 | 0.836 | 0.769 | 0.825 | 0.816 | 0.814 | 0.788 | 0.781 | 0.759
10 µM, coculture fibroblast: H6076 | 0.971 | 0.953 | 0.944 | 0.945 | 0.932 | 0.921 | 0.911 | 0.895 | 0.891
10 µM, coculture fibroblast: H6231 | 0.722 | 0.897 | 0.916 | 0.9644 | 0.9347 | 0.9 | 0.879 | 0.851 | 0.828
10 µM, coculture fibroblast: HADF | 0.826 | 0.809 | 0.906 | 0.808 | 0.836 | 0.94 | 0.916 | 0.921 | 0.917
10 µM, coculture fibroblast: HCFa | 0.979 | 0.96907 | 0.95 | 0.953 | 0.914 | 0.866 | 0.867 | 0.847 | 0.834
10 µM, coculture fibroblast: HCPF | 0.9798 | 0.9552 | 0.942 | 0.925 | 0.901 | 0.875 | 0.8458 | 0.82 | 0.817
10 µM, coculture fibroblast: HHSteC | 0.9745 | 0.99405 | 0.986 | 0.975 | 0.957 | 0.936 | 0.926 | 0.922 | 0.914
10 µM, coculture fibroblast: HMF | 0.792 | 0.7385 | 0.7653 | 0.816 | 0.862 | 0.716 | 0.9885 | 0.931 | 0.896
10 µM, coculture fibroblast: HPFa | 0.789 | 0.802 | 0.812 | 0.977 | 0.972 | 0.933 | 0.926 | 0.907 | 0.881
10 µM, coculture fibroblast: HUF | 0.927 | 0.928 | 0.896 | 0.872 | 0.843 | 0.836 | 0.804 | 0.8 | 0.792
10 µM, coculture fibroblast: Hs5 | 0.924 | 0.969 | 0.953 | 0.94 | 0.91 | 0.871 | 0.851 | 0.828 | 0.818
10 µM, coculture fibroblast: Hs27A | 0.984 | 0.936 | 0.917 | 0.93156 | 0.868 | 0.829 | 0.909 | 0.899 | 0.856
10 µM, coculture fibroblast: Hs343T | 0.828 | 0.823 | 0.809 | 0.862 | 0.9256 | 0.842 | 0.852 | 0.942 | 0.847
10 µM, coculture fibroblast: WS1 | 0.819 | 0.8187 | 0.7295 | 0.811 | 0.806 | 0.794 | 0.778 | 0.788 | 0.759
100 µM, coculture fibroblast: C12385 | 0.396 | 0.25 | 0.305 | 0.197 | 0.134 | 0.111 | 0.0857 | 0.0843 | 0.0652
100 µM, coculture fibroblast: H6013 | 0.412 | 0.262 | 0.211 | 0.178 | 0.151 | 0.144 | 0.119 | 0.107 | 0.0806
100 µM, coculture fibroblast: H6019 | 0.4187 | 0.21 | 0.228 | 0.147 | 0.111 | 0.0947 | 0.0711 | 0.0658 | 0.0482
100 µM, coculture fibroblast: H6076 | 0.7564 | 0.778 | 0.829 | 0.841 | 0.937 | 0.835 | 0.689 | 0.603 | 0.547
100 µM, coculture fibroblast: H6231 | 0.884 | 0.813 | 0.747 | 0.93 | 0.908 | 0.808 | 0.667 | 0.6 | 0.503
100 µM, coculture fibroblast: HADF | 0.444 | 0.336 | 0.268 | 0.227 | 0.202 | 0.196 | 0.163 | 0.152 | 0.118
100 µM, coculture fibroblast: HCFa | 0.626 | 0.353 | 0.271 | 0.227 | 0.2 | 0.188 | 0.165 | 0.147 | 0.12
100 µM, coculture fibroblast: HCPF | 0.772 | 0.711 | 0.859 | 0.804 | 0.893 | 0.903 | 0.772 | 0.699 | 0.604
100 µM, coculture fibroblast: HHSteC | 0.546 | 0.31 | 0.254 | 0.213 | 0.185 | 0.175 | 0.145 | 0.132 | 0.105
100 µM, coculture fibroblast: HMF | 0.755 | 0.908 | 0.814 | 0.78 | 0.86 | 0.846 | 0.714 | 0.64 | 0.571
100 µM, coculture fibroblast: HPFa | 0.744 | 0.402 | 0.304 | 0.249 | 0.227 | 0.211 | 0.176 | 0.16 | 0.132
100 µM, coculture fibroblast: HUF | 0.562 | 0.362 | 0.4015 | 0.281 | 0.233 | 0.212 | 0.182 | 0.171 | 0.153
100 µM, coculture fibroblast: Hs5 | 0.844 | 0.888 | 0.802 | 0.9864 | 0.893 | 0.7996 | 0.668 | 0.562 | 0.483
100 µM, coculture fibroblast: Hs27A | 0.483 | 0.304 | 0.255 | 0.223 | 0.197 | 0.192 | 0.165 | 0.157 | 0.126
100 µM, coculture fibroblast: Hs343T | 0.876 | 0.863 | 0.723 | 0.7336 | 0.961 | 0.85 | 0.6803 | 0.5914 | 0.469
100 µM, coculture fibroblast: WS1 | 0.37 | 0.222 | 0.263 | 0.168 | 0.135 | 0.117 | 0.0912 | 0.0906 | 0.0725
